{"source": "PubChem BioAssay AID1224830 – NIAID | 2016", "test": "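Regulators of TLR4 signalling towards TNF-alpha in macrophage-like cells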 (primary screen)", "cells": "human THP-1 monocytic leukaemia cells, TNF dual-luciferase reporter clone, PMA-differentiated to macrophage-like cells", "reagent": "siRNA pool against human genes, 50 nM", "time to read-out": "LPS for 4 h, given about 3 days after siRNA transfection", "conditions": "bacterial LPS (TLR4 ligand), 10 ng/ml", "measured": "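TNF firefly reporter luminescence divided by renilla, normalised to the plate median, then turned into a robust z-score for each replicate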", "direction": "TNF reporter robust z-score: higher = stronger TNF reporter response to LPS", "active means": "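Each well counts as active if its z-score is over 2.8 or under -1.5; controls are left without a call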", "note": "The deposit covers about 18,000 reagents; this is a part drawn at random. About 2,900 of all reagents (16%) were called active. 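Calls are made per well; low scores hint the gene aids the LPS response, high scores that it dampens it.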 Repeated entries: four replicate wells of each siRNA pool."}
{"target": "DBT (dihydrolipoamide branched chain transacylase E2)", "TNF reporter robust z-score": -1.32, "call": "inactive"}
{"target": "DBT (dihydrolipoamide branched chain transacylase E2)", "TNF reporter robust z-score": -1.2, "call": "inactive"}
{"target": "DBT (dihydrolipoamide branched chain transacylase E2)", "TNF reporter robust z-score": -1.78, "call": "active"}
{"target": "DBT (dihydrolipoamide branched chain transacylase E2)", "TNF reporter robust z-score": -0.15, "call": "inactive"}
{"target": "CTF1 (cardiotrophin 1)", "TNF reporter robust z-score": 0.94, "call": "inactive"}
{"target": "CTF1 (cardiotrophin 1)", "TNF reporter robust z-score": 0.39, "call": "inactive"}
{"target": "CTF1 (cardiotrophin 1)", "TNF reporter robust z-score": -0.18, "call": "inactive"}
{"target": "CTF1 (cardiotrophin 1)", "TNF reporter robust z-score": -0.47, "call": "inactive"}
{"target": "CDC42BPA (CDC42 binding protein kinase alpha)", "TNF reporter robust z-score": 0.17, "call": "inactive"}
{"target": "CDC42BPA (CDC42 binding protein kinase alpha)", "TNF reporter robust z-score": 1.11, "call": "inactive"}
{"target": "CDC42BPA (CDC42 binding protein kinase alpha)", "TNF reporter robust z-score": 2.36, "call": "inactive"}
{"target": "CDC42BPA (CDC42 binding protein kinase alpha)", "TNF reporter robust z-score": 0.34, "call": "inactive"}
{"target": "SLC15A1", "TNF reporter robust z-score": 0.5, "call": "inactive"}
{"target": "SLC15A1", "TNF reporter robust z-score": -0.71, "call": "inactive"}
{"target": "SLC15A1", "TNF reporter robust z-score": -0.55, "call": "inactive"}
{"target": "SLC15A1", "TNF reporter robust z-score": 0.19, "call": "inactive"}
{"target": "TOR3A (torsin family 3 member A)", "TNF reporter robust z-score": -0.19, "call": "inactive"}
{"target": "TOR3A (torsin family 3 member A)", "TNF reporter robust z-score": 0.53, "call": "inactive"}
{"target": "TOR3A (torsin family 3 member A)", "TNF reporter robust z-score": -0.48, "call": "inactive"}
{"target": "TOR3A (torsin family 3 member A)", "TNF reporter robust z-score": 0.3, "call": "inactive"}
{"target": "ADCY8 (adenylate cyclase 8)", "TNF reporter robust z-score": 0.74, "call": "inactive"}
{"target": "ADCY8 (adenylate cyclase 8)", "TNF reporter robust z-score": 2.04, "call": "inactive"}
{"target": "ADCY8 (adenylate cyclase 8)", "TNF reporter robust z-score": 0, "call": "inactive"}
{"target": "ADCY8 (adenylate cyclase 8)", "TNF reporter robust z-score": 0.97, "call": "inactive"}
{"target": "PRRC1 (proline rich coiled-coil 1)", "TNF reporter robust z-score": 0.3, "call": "inactive"}
{"target": "PRRC1 (proline rich coiled-coil 1)", "TNF reporter robust z-score": 1.7, "call": "inactive"}
{"target": "PRRC1 (proline rich coiled-coil 1)", "TNF reporter robust z-score": -0.1, "call": "inactive"}
{"target": "PRRC1 (proline rich coiled-coil 1)", "TNF reporter robust z-score": 1.63, "call": "inactive"}

8 entries from above, reformatted:
target	TNF reporter robust z-score	call
TOR3A (torsin family 3 member A)	0.3	inactive
ADCY8 (adenylate cyclase 8)	0.74	inactive
ADCY8 (adenylate cyclase 8)	2.04	inactive
ADCY8 (adenylate cyclase 8)	0	inactive
ADCY8 (adenylate cyclase 8)	0.97	inactive
PRRC1 (proline rich coiled-coil 1)	0.3	inactive
PRRC1 (proline rich coiled-coil 1)	1.7	inactive
PRRC1 (proline rich coiled-coil 1)	-0.1	inactive

Next reagents follow:
{"target": "TEX264 (testis expressed 264, ER-phagy receptor)", "TNF reporter robust z-score": 0.12, "call": "inactive"}
{"target": "TEX264 (testis expressed 264, ER-phagy receptor)", "TNF reporter robust z-score": 0.65, "call": "inactive"}
{"target": "TEX264 (testis expressed 264, ER-phagy receptor)", "TNF reporter robust z-score": 1.91, "call": "inactive"}
{"target": "TEX264 (testis expressed 264, ER-phagy receptor)", "TNF reporter robust z-score": 0.62, "call": "inactive"}
{"target": "TPD52L3 (TPD52 like 3)", "TNF reporter robust z-score": 0.34, "call": "inactive"}
{"target": "TPD52L3 (TPD52 like 3)", "TNF reporter robust z-score": 0.01, "call": "inactive"}
{"target": "TPD52L3 (TPD52 like 3)", "TNF reporter robust z-score": -0.11, "call": "inactive"}
{"target": "TPD52L3 (TPD52 like 3)", "TNF reporter robust z-score": 1.09, "call": "inactive"}
{"target": "SLC9A2", "TNF reporter robust z-score": 0.09, "call": "inactive"}
{"target": "SLC9A2", "TNF reporter robust z-score": -0.93, "call": "inactive"}
{"target": "SLC9A2", "TNF reporter robust z-score": -1.51, "call": "active"}
{"target": "SLC9A2", "TNF reporter robust z-score": -0.82, "call": "inactive"}
{"target": "ZNF622 (zinc finger protein 622)", "TNF reporter robust z-score": -0.47, "call": "inactive"}
{"target": "ZNF622 (zinc finger protein 622)", "TNF reporter robust z-score": -0.28, "call": "inactive"}
{"target": "ZNF622 (zinc finger protein 622)", "TNF reporter robust z-score": -0.22, "call": "inactive"}
{"target": "ZNF622 (zinc finger protein 622)", "TNF reporter robust z-score": 0.15, "call": "inactive"}
{"target": "MCF2L (MCF.2 cell line derived transforming sequence like)", "TNF reporter robust z-score": -0.71, "call": "inactive"}
{"target": "MCF2L (MCF.2 cell line derived transforming sequence like)", "TNF reporter robust z-score": 0.23, "call": "inactive"}
{"target": "MCF2L (MCF.2 cell line derived transforming sequence like)", "TNF reporter robust z-score": -0.66, "call": "inactive"}
{"target": "MCF2L (MCF.2 cell line derived transforming sequence like)", "TNF reporter robust z-score": 0.03, "call": "inactive"}
